These results are taken from PubChem BioAssay AID330 (DTP/NCI, 2004).

In this experiment the test system is P388 leukemia ip, CD2F1 mice, survival T/C. Nature of the experiment: NCI In Vivo Anticancer Drug Screen. Data for tumor model P388 Leukemia (intraperitoneal) in CD2F1 (CDF1) mice. The note with it: T/C endpoint: median survival time, higher T/C = longer survival.
Where [1] appears, read: dose: 50.0 mg/kg/injection, schedule: Q01DX005 (ip), vehicle: Klucel (hydroxypropylcellulose) (HPC).
[2] abbreviates: dose: 100.0 mg/kg/injection, schedule: Q01DX005 (ip), vehicle: Klucel (hydroxypropylcellulose) (HPC).
The mark [3] stands for this setting: dose: 200.0 mg/kg/injection, schedule: Q01DX005 (ip), vehicle: Klucel (hydroxypropylcellulose) (HPC).
The mark [4] stands for this setting: dose: 200.0 mg/kg/injection, schedule: Q04DX003 (ip), vehicle: saline with Tween-80.
Setting [5] is: dose: 50.0 mg/kg/injection, schedule: Q01DX009 (ip), vehicle: Klucel (hydroxypropylcellulose) (HPC).
[6] abbreviates: dose: 50.0 mg/kg/injection, schedule: Q04DX003 (ip), vehicle: saline with Tween-80.
The mark [7] stands for this setting: dose: 240.0 mg/kg/injection, schedule: Q01DX005 (ip), vehicle: saline with Tween-80.
[8] abbreviates: dose: 400.0 mg/kg/injection, schedule: Q01DX001 (ip), vehicle: Klucel (hydroxypropylcellulose) (HPC).
Setting [9] is: dose: 100.0 mg/kg/injection, schedule: Q04DX003 (ip), vehicle: saline with Tween-80.
Setting [10] is: dose: 400.0 mg/kg/injection, schedule: Q04DX003 (ip), vehicle: saline with Tween-80.
Where [11] appears, read: dose: 60.0 mg/kg/injection, schedule: Q01DX005 (ip), vehicle: saline with Tween-80.
The mark [12] stands for this setting: dose: 120.0 mg/kg/injection, schedule: Q01DX005 (ip), vehicle: saline with Tween-80.
[13] abbreviates: dose: 50.0 mg/kg/injection, schedule: Q01DX005 (ip), vehicle: saline.
Setting [14] is: dose: 100.0 mg/kg/injection, schedule: Q01DX005 (ip), vehicle: saline.
Where [15] appears, read: dose: 200.0 mg/kg/injection, schedule: Q01DX005 (ip), vehicle: saline.
Where [16] appears, read: dose: 50.0 mg/kg/injection, schedule: Q01DX009 (ip), vehicle: saline.
The mark [17] stands for this setting: dose: 400.0 mg/kg/injection, schedule: Q01DX001 (ip), vehicle: saline with Tween-80.

The list does not hold the whole screen: it is rich in T/C values a quarter to a half above the control, in often repeated tests (any T/C) and in doses without a T/C. Further doses and runs are listed elsewhere. T/C: endpoint of the treated group in % of that of the vehicle group. Some entries give survivors of the animals treated and no T/C: the source files T/C as zero there, which appears to mark a toxic dose or a test without result, not a measured value. Some doses without a T/C left all or most animals alive at the check, yet need not have been tolerated: the source hardly ever lists a survival T/C far under the control, and the zero likely stands for such cases as well. Survivors were counted at the toxicity check, usually on the fifth day, unless a day is given; later deaths do not show. Schedule codes are those of the source, taken here to give the interval after Q, in days (D) or hours (H), and the number of doses after X. For survival time, this PubChem deposit counts one and a half times the control or more as active, and values a quarter to a half above the control carry no call in these data; other NCI protocols may use other cut-offs. Some entries were tested several times; their values stand side by side, smallest first.

Take `Cc1c[nH]c2nc(C)n(-c3ccc(F)cc3)c(=N)c12`: the survivor count runs as follows: under setting [1], 1 of 6; under setting [2], 3 of 6; under setting [3], 0 of 6.

For the compound `O=C(COC1CCCCC1)OC1CCCCC1`, under setting [4], the survivor count is on record as 4 of 6.

In the case of `Cc1oc2ccccc2c(=O)c1CN1CCN(C)CC1`, the survivor count (dose: 240.0 mg/kg/injection, schedule: Q01DX005 (ip), vehicle: saline) is listed as 0 of 6. In the case of `N#CC(C#N)=C1Cc2ccccc2C1`, the survivor count (dose: 100.0 mg/kg/injection, schedule: Q01DX001 (ip), vehicle: saline with Tween-80) is 2 of 6. `C(CCOCC1CO1)COCC1CO1` (stereo unspecified): the T/C under setting [5] was 125 % of control; the T/C (dose: 100.0 mg/kg/injection, schedule: Q01DX009 (ip), vehicle: Klucel (hydroxypropylcellulose) (HPC)) is 136 % of control; the T/C (dose: 200.0 mg/kg/injection, schedule: Q01DX009 (ip), vehicle: Klucel (hydroxypropylcellulose) (HPC)) is 133 and 138 % of control. In the case of `CCCCCCCCCCCCCCCC(=O)NCCO`, the survivor count under setting [6] is reported as 6 of 6.

As to `O=C1CCC(=O)c2c1c(O)c1c(O)ccc(O)c1c2O`, the survivor count is 5 of 5 (dose: 50.0 mg/kg/injection, schedule: Q01DX005 (ip), vehicle: saline with Tween-80); 5 of 5 (dose: 100.0 mg/kg/injection, schedule: Q01DX005 (ip), vehicle: saline with Tween-80); 5 of 5 (dose: 200.0 mg/kg/injection, schedule: Q01DX005 (ip), vehicle: saline with Tween-80). As for `CCOC(=O)c1c(C(=O)OCC)c(C)n(/N=N/n2c(C)c(C(=O)OCC)c(C(=O)OCC)c2C)c1C`, the survivor count under setting [3] is 5 of 5.

For `COC(=O)c1nc(N)nc(C(=O)OC)c1C(=O)c1ccc(Cl)cc1Cl`, the survivor count under setting [7] is on record as 0 of 6. As for `CN=C(NC(C)C)c1ccccc1`, the survivor count is listed as 4 of 6 (dose: 100.0 mg/kg/injection, schedule: Q01DX009 (ip), vehicle: saline) and 0 of 6 (dose: 200.0 mg/kg/injection, schedule: Q01DX009 (ip), vehicle: saline). On to `Cc1nc2sccn2c1C=O`, for which the survivor count is, setting by setting: (dose: 200.0 mg/kg/injection, schedule: Q01DX001 (ip), vehicle: Klucel (hydroxypropylcellulose) (HPC)) 1 of 6; under setting [8], 0 of 6. In the case of `[Cl][Cu][Cl].[O-][n+]1c2ccccc2nc2ccccc21`, the survivor count reads like this: under setting [6], 0 of 6; under setting [9], 0 of 6; under setting [4], 0 of 6; under setting [10], 0 of 6. As for `C/C(=N\NC(N)=S)c1cccc(/C(C)=N/NC(N)=S)n1`, the survivor count was 3 of 6 under setting [9], 2 of 6 under setting [4] and 5 of 6 under setting [10]. As for `F[B-](F)(F)F`, where the note is “dose: 100.0 mg/kg/injection, schedule: Q01DX009 (ip), vehicle: gum acacia”, the T/C is 129 % of control. With `N#CC1(C#N)C2CCCCC21` (stereo unspecified), the survivor count under setting [11] was 0 of 6, the survivor count under setting [12] is on record as 0 of 6 and the survivor count under setting [7] is reported as 0 of 6. Consider `CCOc1cc(C=Nc2cc(Cl)c(O)c(Cl)c2)ccc1N(CCCl)CCCl`, for which the T/C (dose: 6.25 mg/kg/injection, schedule: Q04DX003 (ip), vehicle: saline with Tween-80) was 136 % of control. In addition, the survivor count (dose: 50.0 mg/kg/injection, schedule: Q01DX009 (ip), vehicle: saline with Tween-80) is 6 of 6. As to `CC1C=CCC(C)(C)C1` (stereo unspecified), the survivor count (dose: 400.0 mg/kg/injection, schedule: Q01DX009 (ip), vehicle: Klucel (hydroxypropylcellulose) (HPC)) was 6 of 6. As to `CCOc1ccn(C2C=CC(=O)O2)c(=O)n1` (stereo unspecified), the survivor count was 2 of 6 under setting [13], 3 of 6 under setting [14] and 0 of 6 under setting [15]. Consider `Nc1ccn(C2OC(CCl)C(O)C2O)c(=O)n1` (stereo unspecified), for which the T/C (dose: 25.0 mg/kg/injection, schedule: Q01DX009 (ip), vehicle: Klucel (hydroxypropylcellulose) (HPC)) is 131 % of control; the T/C (dose: 25.0 mg/kg/injection, schedule: Q01DX009 (ip), vehicle: saline) was 126 % of control; the T/C under setting [5] was 146 % of control; the T/C under setting [16] was 137 % of control. Consider `COc1ccc(C(=O)/C=C/c2ccc(OC)c(OC)c2OCc2ccccc2)c(O)c1`, for which the survivor count under setting [8] is 6 of 6. In the case of `CN(C)CCCSc1c2ccccc2nc2cccc([N+](=O)[O-])c12`, under setting [7], the survivor count was 6 of 6. As for `C=C1C(=O)O[C@@H]2C[C@@H](C)[C@@H]3CC(=O)OC[C@@]3(C)C[C@H]12`, the survivor count under setting [17] is listed as 2 of 6. Take `CCN1c2ccccc2S(=O)(=O)n2c(Cc3ccccc3)nnc21`: the survivor count under setting [17] is 6 of 6. As for `CCOC(=O)OC(C#N)(c1ccc([N+](=O)[O-])cc1)c1nccc2ccccc12` (stereo unspecified), the survivor count runs as follows: under setting [16], 4 of 6; (dose: 100.0 mg/kg/injection, schedule: Q01DX009 (ip), vehicle: suspension in saline) 6 of 6; (dose: 200.0 mg/kg/injection, schedule: Q01DX009 (ip), vehicle: suspension in saline) 6 of 6. Regarding `C[n+]1cc(Cl)cc(Br)c1`, the T/C runs as follows: under setting [13], 127 % of control; under setting [14], 128 % of control. Further, the survivor count under setting [15] was 1 of 6. For `CN1CC2(CO)C(c3ccccn3)N(C)C(c3ccccn3)C(CO)(C1)C2O` (stereo unspecified), the survivor count under setting [7] was 0 of 6. `COc1ccc2c(c1)OC(C)(C)C(c1ccccc1)=C2c1ccc(O)cc1`: the survivor count runs as follows: under setting [11], 6 of 6; under setting [12], 6 of 6; under setting [7], 6 of 6. Take `Cc1cccc[n+]1CC(=O)C[n+]1ccccc1C`: under setting [15], the survivor count was 1 of 5. As for `COc1cc2cc(c1Cl)N1CC(=O)C(C)(O)C(=O)N(C)C(C)C(=O)OC(CC1=O)C1(C)OC1C(C)C1CC(O)(NC(=O)O1)C(OC)/C=C\C=C(\C)C2OC` (stereo unspecified), the survivor count is 6 of 6 (dose: 16.0 micrograms/kg/injection, schedule: Q01DX009 (ip), vehicle: distilled water + alcohol) and 5 of 6 (dose: 32.0 micrograms/kg/injection, schedule: Q01DX009 (ip), vehicle: distilled water + alcohol). With `Fc1c(F)c(F)c(SN=S=Nc2ccccc2)c(F)c1F`, under setting [3], the survivor count is 6 of 6. Turning to `COc1cc([N+](=O)[O-])c(OC)c2c(=O)[nH]c(=O)[nH]c12`, the survivor count (dose: 25.0 mg/kg/injection, schedule: Q01DX005 (ip), vehicle: Klucel (hydroxypropylcellulose) (HPC)) is given as 6 of 6 and the survivor count under setting [1] is on record as 6 of 6.

For the compound `c1ccc2c(c1)Sc1ccccc1N2CCCNC1=NCCO1`, under setting [9], the survivor count is 6 of 6. Regarding `O=C1CCC(N2C(=O)c3ccccc3C2=O)C(=O)N1` (stereo unspecified), the survivor count (dose: 200.0 mg/kg/injection, schedule: Q01DX009 (ip), vehicle: saline with Tween-80) is reported as 6 of 6.

`NC(=S)c1ccc(C=Nc2ccc(Cl)cc2)cc1`: for the setting “dose: 200.0 mg/kg/injection, schedule: Q01DX001 (ip), vehicle: other”, the survivor count is listed as 3 of 6. With `CCN(CC)CCNc1nc(NCCN(CC)CC)c2cn[nH]c2n1`, the survivor count reads like this: (dose: 12.0 mg/kg/injection, schedule: Q01DX005 (ip), vehicle: saline) 4 of 5; (dose: 25.0 mg/kg/injection, schedule: Q01DX005 (ip), vehicle: saline) 0 of 5; under setting [13], 0 of 5; under setting [14], 0 of 5; under setting [15], 0 of 5. As for `N[C@H]1CN([C@@H](C(=O)O)c2ccc(O)cc2)C1=O`, under setting [1], the survivor count is given as 5 of 5. The T/C under setting [2] is 125 % of control and the T/C under setting [3] was 127 % of control.
